Data taken from article PMC8034648, “Oligomeric complexes formed by Redβ single strand annealing protein in its different DNA bound states”.

Target: T1, Redβ single strand annealing protein (bacteriophage λ) (UniProt P03698)
T1 sequence: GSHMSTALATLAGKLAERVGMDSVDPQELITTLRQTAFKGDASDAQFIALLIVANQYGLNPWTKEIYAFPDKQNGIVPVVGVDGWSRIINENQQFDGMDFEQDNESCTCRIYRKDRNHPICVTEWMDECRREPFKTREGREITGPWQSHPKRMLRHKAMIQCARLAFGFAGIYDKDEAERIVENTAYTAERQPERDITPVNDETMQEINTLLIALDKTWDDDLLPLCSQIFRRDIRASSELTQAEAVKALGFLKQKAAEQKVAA
Assay: EMSA
Conditions: ssDNA alone, PBS, 10 mM Mg2+ or ammonium acetate, EMSA: 10 uM Redβ, 50 uM nt DNA, 37 C, in PBS, or 20 mM Tris-HCl pH 7.5/10 mM NaCl/10 mM MgCl2, or 50 mM ammonium acetate pH 7.0, recombinant protein, single-stranded DNA

Sequence	binding result (label: 5'-Cy3)	binding result (label: 5'-Cy5)
GCGGATGGCTTAGAGCAGAATCGCCCTGCATAGCTCGATTTTTGCGGATG [Cy3 50mer]	binds more weakly	
CCATCCGCAAAAATCGAGCTATGCAGGGCGATTCTGCTCTAAGCCATCCG [Cy5 50mer]		binds more weakly

Weaker means in comparison with the reference protein, sequence or condition of that experiment. Protein sequences can lack the tags named with them.
